Results: US10207985B2, “Compounds” (SYNGENTA PARTICIPATIONS AG, priority 2013, dated 2019)
Some results were stated once for a whole list of compounds, not compound by compound.

Tests used:
[1] = system: Meloidogyne spp. (Root-Knot Nematode); assay: Meloidogyne spp. nematicide, contact activity, preventive (cucumber pot test, Zeck's gall index); type: in vivo; conditions: pots treated with 5 ml of a WP10 suspension, 3000 eggs of M. incognita, harvested fourteen days after application
[2] = system: Heterodera schachtii (Sugar beet cyst nematode); assay: Heterodera schachtii nematicide, contact activity (juvenile immobilization in 16-well plates); type: in vivo; conditions: 20 ppm; approx. 500 juveniles per well; 24 hours incubation at 25° C. in darkness

## Cc1ccsc1C1CC[C@H]1NC(=O)c1ccccc1C(F)(F)F (some centres unmarked) [Compound 116-4]
[1]
  reduction of galling compared to the untreated control: greater than 80%
[2]
  nematode immobilization compared to the untreated control: greater than 75%
